What all share (assay): cells
The test system of experiment [1] is HepG2 (human hepatocellular carcinoma). The note with it: HepG2, read-out: Cytotoxicity IC50, HepG 2. As to the method: To determine the cytotoxicity of garciesculentone B, its IC50 values on HepG2, SMMC-7721, MCF-7, and MDA-MB-231 cell lines are measured. […] In addition, further study is taken to test whether garciesculentone B can exert effects on cell motility. A wound healing assay using ECA109 cells is performed in this regard.
Cytotoxicity Assay. Cytotoxic activitiy of garciesculentone B were evaluated by MTT assay using SMMC-7721 (human hepatocellular carcinoma), HepG2 (human hepatocellular carcinoma), MCF-7 (human breast adenocarcinoma), and MDA-MB-231 (human breast adenocarcinoma). Paclitaxel was used as positive control. The detailed methodology for cytotoxicity assay has already been described in Xia, Z.-X.; Zhang, D.-D.; Liang, S.; Lao, Y.-Z.; Zhang, H.; Tan, H.-S.; Chen, S.-L.; Wang, X.-H.; Xu, H.-X., Bioassay-Guided Isolation of Prenylated Xanthones and Polycyclic Acylphloroglucinols from the Leaves of Garcinia nujiangensis. Journal of Natural Products 2012.

Experiment [2] relates to MCF-7 (human breast adenocarcinoma). The experiment is classed as cell-based. The note with it: MCF7, read-out: Cytotoxicity IC50, MCF-7. The source says:
(§1) Cytotoxicity Assay. […] Paclitaxel was used as positive control. […] Journal of Natural Products 2012.

Experiment [3] relates to MDA-MB-231 (human breast adenocarcinoma). The experiment is classed as cell-based. The note with it: MDA-MB-231, read-out: Cytotoxicity IC50, MDA-MB-231.
From the text: as §1

For `CC(=O)O[C@H]1C(=O)[C@@]2(C)[C@H]([C@H](OC(=O)c3ccccc3)[C@]3(O)C[C@H](OC(=O)[C@H](O)[C@@H](NC(=O)c4ccccc4)c4ccccc4)C(C)=C1C3(C)C)[C@]1(OC(C)=O)CO[C@@H]1C[C@@H]2O` [Palcitaxel, Paclitaxel, reference compound], the half-maximal inhibitory concentration (IC50) in experiment [1] worked out at 4.6 nM; in experiment [2], 1.5 nM; in experiment [3] it was 8.2 nM.

What is called IC50 is the point on the concentration scale where inhibition reaches its midpoint.

The values above are taken from US20140194498A1, “POLYISOPRENYLATED TETRACYCLIC XANTHONE WITH ANTICANCER ACTIVITY” (Hong Kong Baptist University, priority 2013, published 2014).
